# Data source: PubChem BioAssay AID1259259 (Sanger Institute, 2017)
# Purpose: 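Kinase silencing that lowers colorectal cancer cell viability alone or with drugs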 (primary screen)
# Cells: SW1463 human colorectal cancer cells
# Reagents: siRNA pool against human genes
# Challenge: DMSO vehicle, or one anchor drug: BYL719 at 1 µM, cetuximab at 5 µg/ml, or trametinib at 10 nM
# Measured: 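Viability as fraction of control pool 2 (non-targeting), replicate mean; knock-down robust z-score without any drug; synergy score averaged for each anchor drug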
# Scale: robust z-score, knock-down alone: higher = more viable cells after knock-down; viability, knock-down alone: higher = more viable cells; synergy score with BYL719 and synergy score with cetuximab: higher = stronger synergy (synthetic lethal) with drug
# Active means: 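a robust z-score under -3 for knock-down with no drug marks the gene as essential, meaning viability loss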
# Calls: active = essential: viability loss from knock-down alone; inactive = no change from knock-down alone
# The deposit covers 794 reagents; below is an unselected part. In the full data, 9 (1.1%) were called active. 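Calls rest on knock-down alone, not drug synergy; viability values seem capped at 1.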 Further read-outs or replicates are left out here. No sequences are given here. The record does not give: the amount of reagent, the time to read-out.
"robust z-score, knock-down alone","viability, knock-down alone (fraction of control)",synergy score with BYL719,synergy score with cetuximab,outcome,gene knocked down
-0.854,0.873,0.0973,-0.0395,inactive,DCLK3 (doublecortin like kinase 3)
-0.252,0.911,0.0694,0.239,inactive,MAPK1 (mitogen-activated protein kinase 1)
-0.318,0.907,0.0238,0.128,inactive,"PFKM (phosphofructokinase, muscle)"
0.697,0.972,0.118,0.265,inactive,PXK (PX domain containing serine/threonine kinase like)
0.952,0.989,0.0386,0.00156,inactive,WT1 (WT1 transcription factor)
-1.33,0.842,0.0207,0.146,inactive,PTK2 (protein tyrosine kinase 2)
0.306,0.947,-0.00165,0.129,inactive,MAGI2
-0.00882,0.927,-0.0729,0.0267,inactive,CKS2 (CDC28 protein kinase regulatory subunit 2)
0.0949,0.934,0.0535,-0.0221,inactive,RIPK3 (receptor interacting serine/threonine kinase 3)
1.13,1,0.0227,0.00704,inactive,CDKL2 (cyclin dependent kinase like 2)
-0.149,0.918,-0.0298,-0.012,inactive,MAP3K3 (mitogen-activated protein kinase kinase kinase 3)
-0.99,0.864,-0.0948,-0.109,inactive,TPK1 (thiamin pyrophosphokinase 1)
0.662,0.97,-0.0217,-0.0199,inactive,FGFR2 (fibroblast growth factor receptor 2)
-2.04,0.796,-0.0943,-0.112,inactive,PRKCQ (protein kinase C theta)
-3.76,0.686,-0.098,-0.00832,active,PANK4 (pantothenate kinase 4 (inactive))
-0.983,0.864,-0.0472,0.102,inactive,EPHB2 (EPH receptor B2)
0.855,0.983,-0.0174,-0.0439,inactive,FGFR4 (fibroblast growth factor receptor 4)
1.13,1,0.12,0.189,inactive,SOS2 (SOS Ras/Rho guanine nucleotide exchange factor 2)
0.72,0.974,0.169,0.147,inactive,ALDH18A1 (aldehyde dehydrogenase 18 family member A1)
0.425,0.955,-0.0173,-0.0162,inactive,PGK1 (phosphoglycerate kinase 1)
1.13,1,0,0.0113,inactive,TESK1 (testis associated actin remodelling kinase 1)
0.463,0.957,-0.00201,0.0334,inactive,AKAP9 (A-kinase anchoring protein 9)
0.489,0.959,-0.0377,0.0568,inactive,CDK12 (cyclin dependent kinase 12)
-0.783,0.877,0.215,0.264,inactive,MAP3K8 (mitogen-activated protein kinase kinase kinase 8)
1.04,0.994,-0.0057,0.0499,inactive,CSNK2A1 (casein kinase 2 alpha 1)
-0.0773,0.923,0.0943,0.217,inactive,PRPS1 (phosphoribosyl pyrophosphate synthetase 1)
-4.38,0.646,-0.0556,0.289,active,PLK1 (polo like kinase 1)
0.624,0.968,-0.00341,0.0297,inactive,"TEX14 (testis expressed 14, intercellular bridge forming factor)"

Limited to “viability, knock-down alone (fraction of control)”, for 4 of the entries above:
DCLK3 (doublecortin like kinase 3) = 0.873
MAPK1 (mitogen-activated protein kinase 1) = 0.911
PFKM (phosphofructokinase, muscle) = 0.907
PXK (PX domain containing serine/threonine kinase like) = 0.972

The list goes on.
"robust z-score, knock-down alone","viability, knock-down alone (fraction of control)",synergy score with BYL719,synergy score with cetuximab,outcome,gene knocked down
0.78,0.978,0.0819,0.0651,inactive,NEK9 (NIMA related kinase 9)
1.13,1,0.00374,-0.0219,inactive,PAK2 (p21 (RAC1) activated kinase 2)
-0.139,0.919,0.00631,-0.0623,inactive,"PIM3 (Pim-3 proto-oncogene, serine/threonine kinase)"
-0.616,0.888,0.0473,0.244,inactive,ACO1 (aconitase 1)
1.13,1,0,0.217,inactive,IP6K3 (inositol hexakisphosphate kinase 3)
-1.46,0.834,-0.0779,0.0661,inactive,NRBP2 (nuclear receptor binding protein 2)
-1.53,0.829,0.0106,0.135,inactive,HUNK (hormonally up-regulated Neu-associated kinase)
-1.8,0.812,-0.105,-0.189,inactive,GNE
-0.841,0.874,0.096,0.0482,inactive,JAK2 (Janus kinase 2)
0.0841,0.933,-0.067,-0.00571,inactive,PIK3R2 (phosphoinositide-3-kinase regulatory subunit 2)
1.13,1,0,0.0944,inactive,FN1 (fibronectin 1)
1.13,1,0.0181,0.0658,inactive,PBK (PDZ binding kinase)
1.13,1,0,-0.0272,inactive,MAPK15 (mitogen-activated protein kinase 15)
1.13,1,0,-0.0166,inactive,INSR (insulin receptor)
0.734,0.975,0.00144,0.00367,inactive,GAK (cyclin G associated kinase)
0.0098,0.928,-0.00287,-0.0703,inactive,"ABL2 (ABL proto-oncogene 2, non-receptor tyrosine kinase)"
1.13,1,0,-0.0272,inactive,ITPKB (inositol-trisphosphate 3-kinase B)
-2.5,0.767,-0.104,0.164,inactive,PTK7 (protein tyrosine kinase 7 (inactive))
-0.813,0.875,-0.125,-0.0971,inactive,CDKN2B (cyclin dependent kinase inhibitor 2B)
-1.14,0.854,-0.0302,0.0325,inactive,BMPR2 (bone morphogenetic protein receptor type 2)
-2.45,0.77,0.028,0.171,inactive,MPP3 (MAGUK p55 scaffold protein 3)
-0.845,0.873,-0.0829,0.0114,inactive,CDKN1A (cyclin dependent kinase inhibitor 1A)
